Assay results from patent publication US20260083864A1, “CONTRAST AGENTS FOR USE IN DIAGNOSTIC COMPUTED TOMOGRAPHY IMAGING” (Bayer Aktiengesellschaft, priority 2022, published 2026).
Some results were stated once for a whole list of compounds, not compound by compound. For at least one compound, name, drawing or mass did not settle the structure.

Assay: No-observed-adverse-effect level (NOAEL) in mice
Conditions: intravenous bolus injection

Row | Structure (SMILES) | NOAEL
1 | CCOc1ccc(CC(CN(CCN(CC(=O)[O-])CC(=O)[O-])CC(=O)[O-])N(CC(=O)[O-])CC(=O)[O-])cc1.[Gd+3].[Na+].[Na+] (centres unmarked) [RC1, gadoxetate disodium, reference compound] | > 2.5 mmol Gd/kg bw
2 | O=C([O-])CN(CCN(CC(=O)[O-])CC(=O)[O-])CCN(CC(=O)[O-])C(COCc1ccccc1)C(=O)[O-].[Gd+3].[H+].[H+] (centres unmarked) [RC2, gadobenic acid, reference compound] | > 2.5 mmol Gd/kg bw
